Paper PMC12040169 (PLOS Biology, 2025)
Some of the results follow.

test system: T1, CTL2-GFP (C. trachomatis L2/434/Bu, GFP-expressing); set-up: species or system HeLa; Intracellular C. trachomatis growth in HeLa cells, bulk GFP fluorescence relative to DMSO; details: bulk GFP, single well; 28.5 h, 10 µM; inhibitor
T1 construct: L2/434/Bu, GFP-expressing

SMILES	% of control remaining
Cc1ccc(S(=O)(=O)Nc2ccc(Nc3cc(-c4ccsc4)ncn3)cc2)cc1 [CBK037792]	134.16%
Cc1cc(F)ccc1C(=O)NCC1CCN(c2cnn(C)c(=O)c2)C1 (stereo not shown) [CBK307097]	92.3583%
c1coc(-c2nccnc2NCc2ccncc2)c1 [CBK038059]	119.476%
COc1cccc2sc(NC(=O)CCCN(C)C)nc12 [CBK149261]	123.126%
Cc1ccc(OCCO)cn1 [CBK001786]	111.222%
Cc1ccc(Cc2cnc(NC(=O)N3CCC(O)C(F)(F)C3)s2)cc1C (stereo not shown) [CBK304120]	167.32%
c1csc(CNc2nc3ccccc3n2CCN2CCOCC2)c1 [CBK262462]	98.402%
CN(C)CCCN(Cc1ccco1)Cc1cccn1-c1ccccn1 [CBK283180]	125.423%
COc1cc(/C=N\NC(=O)CN2CCN(C)CC2)cc2c1OCO2 [CBK261503]	89.9486%
COc1ccc(C(=O)C2=C(O)C(=O)N(Cc3cccnc3)C2c2ccc(N(C)C)cc2)cc1 (stereo not shown) [CBK264635]	100%
COc1ncc(-c2nccnc2NCc2cccs2)c(OC)n1 [CBK037318]	182.197%
Cc1ccc(C)c(N2CCN(CCCNC(=S)Nc3ccc(Cl)cc3Cl)CC2)c1 [CBK267951]	78.1396%
COC(=O)NC(=O)N1CCN(c2c(Cl)cncc2Cl)CC1 [CBK043398]	91.8514%
CC(=O)N[C@@H](CC[S+](C)[O-])C(=O)N1CCC2(C/C=C/C[C@@H]3COCC[C@@H]3NC(=O)[C@@H](CC(C)C)NC2=O)CC1 (stereo partly shown) [CBK292192]	82.6532%
O=C(O)C1=CC(c2c[nH]nc2-c2ccc(F)cc2)n2ncnc2N1 (stereo not shown) [CBK286906]	122.368%
COc1ccccc1N1CCN(c2c(C)c(C)nc3cc(-c4nccn4C)nn23)CC1 [CBK286182]	138.016%
CCN1CCC(CC(=O)N2CCc3[nH]c4ccccc4c3C2)CC1 [CBK281846]	162.527%
c1ccc(CCNc2c3c(nc4ccccc24)CCC3)cc1 [CBK263693C]	111.07%
N#Cc1c(NC(=O)c2cc(S(=O)(=O)N3CCOCC3)cs2)sc2c1CCCC2 [CBK264532]	100%
CCCSCC(=O)Nc1nn(C)c2cccc(N3CCOCC3)c12 [CBK307354]	115.016%
COc1ccc(Cl)cc1NC(=O)C1CC(=O)N=C(N2CCOCC2)N1 (stereo not shown) [CBK268893]	123.487%
COc1ccc(CC(=O)N2CCCc3c(cnn3C)C2)cc1F [CBK285285]	115.039%
O=S(=O)(Nc1cc(F)cc(F)c1F)c1cc(OC2CCNCC2)c2occc2c1 [CBK082814C]	141.135%
Cc1cc(-c2nnc(SCc3ccc(Cl)cc3)n2C)no1 [CBK067720]	95.8786%
COc1ccccc1CN(C(=O)Nc1ccccc1Cl)C1CC1 [CBK298332]	129.88%
CCCCNC(=O)NS(N)(=O)=O [CBK022990]	171.637%

Compounds listed so far containing an NH in an aromatic ring, in the order listed:
SMILES	% of control remaining
O=C(O)C1=CC(c2c[nH]nc2-c2ccc(F)cc2)n2ncnc2N1 (stereo not shown) [CBK286906]	122.368%
CCN1CCC(CC(=O)N2CCc3[nH]c4ccccc4c3C2)CC1 [CBK281846]	162.527%

(further entries)

SMILES	% of control remaining
Clc1ccc(CSc2nccnc2N2CCCC2)cc1 [CBK107177]	68.3992%
C/C(Cl)=C\CN1C(=O)C(=O)c2cc(C)ccc21 [CBK087601]	104.601%
Cn1cc(-c2ccncc2)c(C2CCCCN2C(=O)c2ccccc2)n1 (stereo not shown) [CBK283444]	141.617%
O=C1CCCN1c1ccc(S(=O)(=O)NC2C3CCCCC32)cc1 (stereo not shown) [CBK282842]	100.631%
CC1=NC(O)(C(F)(F)F)C(c2ccccc2)S1 (stereo not shown) [CBK009121]	145.68%
C/C(=N\Nc1ccc(Cl)c(Cl)c1)c1cccnc1 [CBK015914C]	164.2%
CC1(C)Cc2c(sc(NC(=O)C3CC(Cl)=CCC3C(=O)O)c2C#N)CO1 (stereo not shown) [CBK265002]	100%
O=S(=O)(NC1CCCCC1)c1ccc(Cl)cc1I [CBK057574]	120.379%
COCC(=O)NC1CCN(CC2(c3ccc(C)cc3)CC2)CC1 [CBK285350]	97.0475%
Cc1cc(C[C@@H]2CCC[C@H]2NCc2cc(Cl)ccc2O)on1 [CBK282997]	144.966%
Cc1nc(C)c(CC(=O)N2CCC(Oc3cccc(F)c3)CC2)s1 [CBK282223]	131.854%
CSc1ccc(-c2cnc(N)c(-c3ccc(C(=O)N4CCOCC4)cc3)n2)cc1 [CBK084539]	120.157%
O=C(CCSc1ccccc1)Nc1ccccc1C(=O)O [CBK264119]	93.778%
Cc1c(C)n(Cc2ccco2)c2ncnc(SCCC(=O)O)c12 [CBK307569]	129.944%
CCNS(=O)(=O)c1ccc(NC(=S)Nc2ccc(S(N)(=O)=O)cc2)cc1 [CBK266978]	91.8209%
CN(C)CCCN1C(=O)C(O)=C(C(=O)c2ccc(Br)cc2)C1c1cccnc1 (stereo not shown) [CBK264589]	100%
CCOc1ccc2nc(SCc3nc(N)nc(Nc4cccc(Cl)c4C)n3)sc2c1 [CBK265202]	100%
O=c1nc(C(F)(F)F)n2ccccc2n1 [CBK027683]	122.988%
COc1ccccc1-c1ncc(OCc2ccccn2)nc1N [CBK145070]	101.823%
O=C(NCC(F)F)c1cn2cc(-c3cccs3)n(CC3CC3)c(=O)c2n1 [CBK307347]	100.869%
CCN1C(=O)CC2(C1=O)C(=O)N(CCc1cccs1)c1ccccc12 (stereo not shown) [CBK075521]	112.052%
CCN1CCN(C(=S)c2ccc(OCC(N)=O)c(OC)c2)CC1 [CBK269293]	136.256%
CN(C(=O)C1CCN(Cc2cccc(C(F)(F)F)c2)CC1)C(c1ccc(F)cc1)c1ccccn1 (stereo not shown) [CBK148409]	100%
COc1ccc(S(=O)(=O)Nc2ccc3oc4c(c3c2)CC(C)CC4)cc1[N+](=O)[O-] (stereo not shown) [CBK266131]	112.016%
FC(F)(F)c1cnc(N2CCNCC2)c(Cl)c1 [CBK013400]	102.095%
O=S(=O)(Nc1ccc2cn[nH]c2c1)c1ccc(-c2ccon2)s1 [CBK067157]	90.9748%
